Patent publication US20230383261A1, “HEPATOCYTE-LIKE CELLS” (Sana Biotechnology, Inc., priority 2020, published 2023)
At least one structure is not confirmed: it was looked up by name or label, or the drawing left a doubt.

Key:
Type in all cases: cell-based, human
[1] = tested on: hepatocyte maturation genes and urea cycle genes in hepatocyte-like cells; experiment: Taqman qPCR gene expression, 3D differentiation protocol with or without forskolin; settings: forskolin during the last 7 days of the differentiation
Description: In the process, the pluripotent stem cells differentiate through different stages including a definitive endoderm stage, an anterior definitive endoderm stage, a foregut endoderm stage, a hepatic endoderm stage, an immature hepatocyte stage, and a mature hepatocyte stage. […] All pluripotent cell lines robustly differentiated in the endoderm lineage in the 3D format, with all cell lines achieving a target efficiency of 90% CXCR4 expressing cells. Gene expression analysis was performed on hepatocyte-like cells produced by either (i) a 3D differentiation protocol or (ii) a 3D differentiation protocol with the addition of 10 μM forskolin from days 28 to day 35. Duplicate RNA samples were isolated at selected time point of the differentiation and gene expression was analyzed by Taqman qPCR.

[2] = tested on: hepatocyte and urea cycle genes in hepatocyte-like cells; experiment: qPCR expression of hepatocyte and urea cycle genes in iPSC-derived hepatocyte-like cells (Protocols A and B); settings: Protocol B, forskolin 10 mM at days 28-35, read at day 35
Description: (§1) Human iPSCs were differentiated to hepatocyte-like cells essentially as described in […] et al., Nature Prot. 8(2):430-437 (2013) (Protocol A) or Blackford et al., Stem Cells Transl Med. 8(2):124-137 (2019) (Protocol B) with the following modifications: cells were maintained in the final medium until a total culture time of 35 days and HepatoZYME basal medium was substituted in Protocol B starting at day 8. Forskolin was added to the final medium at a concentration of […] on day 21 (Protocol A) or day 28 (Protocols A and B). Expression of hepatocyte and urea cycle genes was measured by qPCR and/or fluorescent Western blot analysis. Ureagenesis of the cells was assayed using Urea Assay Kit (BioChain).

[3] = tested on: hepatocyte-like cells; experiment: urea production assay at day 35, 2D differentiation with forskolin; settings: 5 μM vs 10 μM forskolin
Description: Mature hepatocyte-like cells were differentiated from human pluripotent stem cells using a 2D differentiation protocol for the first 26 days of differentiation, and then the immature hepatocyte-like cells were cultured in media containing forskolin (ranging from about 5 μM to about 10 μM). At day 35, the activity for the hepatocytes was determined using a urea production assay.

[4] = tested on: hepatocyte-like cells; experiment: ureagenesis after ammonia challenge (Urea Assay Kit); settings: day 35 cells, Protocols A and B, seven-day forskolin treatment, 0-16 mM ammonia; cells without forskolin had no stimulation
Description: as §1, with “(BioChain). Ureagenesis activity was measured in day 35 cells from Protocol A and Protocol B following seven-day treatment with forskolin, following challenge of the hepatocyte-like cells with 0-16 mM ammonia. […] For Protocol A, ureagenesis activity peaked at stimulation with 5 mM ammonia treatment at about 20 nmol/min/10^6 cells, and levels were observed higher than those seen using primary human hepatocytes. For […], ureagenesis activity peaked at stimulation with 10 mM ammonia at a level similar to primary human hepatocytes, about 3 nmol/min/10^6 cells.” for “(BioChain).”

[5] = tested on: CPS1 and ARG1 protein in hepatocyte-like cells; experiment: fluorescent Western blot of CPS1 and ARG1 in day 35 hepatocyte-like cells; settings: Protocol B, forskolin 10 mM at days 28-35, day 35 immunoblot

C=C[C@@]1(C)CC(=O)[C@]2(O)[C@@]3(C)[C@@H](O)CCC(C)(C)[C@@H]3[C@H](O)[C@H](OC(C)=O)[C@@]2(C)O1 [forskolin]
expression of ASGR1, albumin, CPS1, ARG1 and NAGS [1]: increase the expression | expression of urea cycle genes CPS1 and ARG1 [2]: significantly increased | dose dependence of the increase in urea production [3]: dose dependent | ammonia-stimulated ureagenesis [4]: exhibited ammonia-stimulated ureagenesis | protein expression of CPS1 and ARG1 [5]: similarly increased
